PMC12017883
Results are given in words; binding and its absence hold for the method and conditions named. Binding seen in cells or lysates may run through a third protein. These calls come from enrichment with a bait or labelling near it, and not all partners need be listed. Values belong to the binder of their own block, whether it stands above or below them.

Sequences of proteins named here, by UniProt entry; tags and fusion partners are left off. A change or cut given only in a name is not applied to a line headed by its entry.
UniProt P00441: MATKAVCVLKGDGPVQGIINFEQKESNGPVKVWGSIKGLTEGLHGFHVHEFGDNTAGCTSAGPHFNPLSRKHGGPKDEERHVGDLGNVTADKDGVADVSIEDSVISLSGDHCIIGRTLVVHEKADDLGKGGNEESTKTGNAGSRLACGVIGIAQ

Target: human mtSOD1-L126delTT with a FLAG sequence at the C terminus (human) (UniProt P00441)
Experiment: affinity purification with mass spectrometry; anti-FLAG M2 IP (5 ug antibody, protein A/G magnetic beads) from the nuclear fraction of DF7 cells (500 ug total protein); control IP with monoclonal mouse IgG (MOPC 21); DIA proteomics; hits: log2 FC >= 2 over control or missing in the control IP

- binding: binds
B1: Ddx50 (protein, UniProt Q99MJ9 1-734)
chain: MPGKLLWGDIMELEAPLEESESQRKERQKSDRRKSRHHSESEERTETRENGVTDDLDAPKPKKAKMREKLNGDTKEGLRFSDEFSPSHKSRRKDLPNGDVDEYEKRSKRVSSSENSHKSSDKAEETLTREQKEGAFSNFSISEETIKLLKGRGVTYLFPIQVKTFGPVYEGKDLIAQARTGTGKTFSFAIPLIERLQRNQETIKKSRSPKVLVLAPTRELANQVAKDFKDITRKLSVACFYGGTSYQSQINQIRNGIDILVGTPGRIKDHLQSGRLDLSKLRHVVLDEVDQMLDLGFAEQVEDIIHESYKTDSEDNPQTLLFSATCPQWVYKVAKKYMKSRYEQVDLVGKMTQKAATTVEHLAIQCHWSQRPAVIGDVLQVYSGSEGRAIIFCETKKNVTEMAMNPHIKQNAQCLHGDIAQSQREITLKGFREGSFKVLVATNVAARGLDIPEVDLVIQSSPPQDVESYIHRSGRTGRAGRTGICVCFYQPRERGQLRYVEQKAGITFKRVGVPSTMDLVKSKSMDAIRSLASVSYAAVDFFRPSAQRLIEEKGAVDALAAALAHISGASSFEPRSLITSDKGFVTMTLESPEEIQDVSCAWKELNRKLSSNAVSHVTRMCLLKGNMGVCFDVPTSESERLQAEWHDSDWILSVPAKLPEIEEYYDGNTSSNPRQRSGWSGGRSGRSGRSGGRSGGRSGRQSRQGSRSGSRQDGRRRSGNRNRSRSGGHKRNFD

- binding: binds
B2: Dhx30 (protein, UniProt Q99PU8 1-1217)
chain: MVTPVCNSSTWQPKDSSFLSWPEMFSLDSFRKDRTQHRQRQCKLPPPRLPPMCVNPAPGGTITRASRDLLKEFPQPKNLLNSVIGRALGISHAKDKLVYVHTNGPKKKKVTLHIKWPKSVEVEGYGSKKIDAERQAAAAACQLFKGWGLLGPRNELFDAAKYRVLADRFGSPADSWWRPEPTMPPTSWRQLNPENIRPGGPAGLSRSLGREEEEDEEEELEEGTIDVTEFLSMTQQDSHNPLRDSRGGSFEMTDDDSAIRALTQFPLPKNLLAKVIQIATSSSTAKNLMQFHTVGTKTKLATLTLLWPCPMTFVAKGRRKAEAENKAAALACKKLKSLGLVDRNNEPLTHAMYNLASLRELGETQRRPCTIQVPEPILRKIEAFLSHYPVDSSWISPELRLQSDDILPLGKDSGPLSDPITGKPYMPLSEAEEVRLSQSLLELWRRRGPIWQEAPQLPVDPHRDTILSAIEQHPVVVISGDTGCGKTTRIPQLLLERYVTEGRGARCNVIITQPRRISAVSVAQRVSHELGPSLRRNVGFQVRLESKPPARGGALLFCTVGILLRKLQSNPSLEGVSHVIVDEVHERDVNTDFLLILLKGLQRLNPALRLVLMSATGDNERFSRYFGGCPVIKVPGFMYPVKEHYLEDILAKLGKHQYPHRHRHHESEDECALDLDLVTDLVLHIDARGEPGGILCFLPGWQEIKGVQQRLQEALGMHESKYLILPVHSNIPMMDQKAIFQQPPLGVRKIVLATNIAETSITVNDIVHVVDSGLHKEERYDLKTKVSCLETVWVSRANVIQRRGRAGRCQSGFAYHLFPRSRLEKMVPFQVPEILRTPLENLVLQAKIHMPEKTAVEFLSKAVDSPNIKAVDEAVILLQEIGVLDQREYLTTLGQRLAHISTDPRLAKAIVLAAIFRCLHPLLVVVSCLTRDPFSSSLQNRAEVDKVKALLSHDSGSDHLAFVRAVAGWEEVLRWQDRTSRENYLEENLLYAPSLRFIHGLIKQFSENIYEAFLVGKPSDCTLPSAQCNEYSEEEELVKGVLMAGLYPNLIQVRQGKVTRQGKFKPNSVTYRTKSGNILLHKSTINREATRLRSRWLTYFMAVKSNGSVFVRDSSQVHPLAVLLLTDGDVHIRDDGRRATISLSDSDLLRLEGDSRTVRLLREFRRALGRMVERSLRSELAALPLSVQQEHGQLLALLAELLRGPCGSFDMRKTADD
